Measured data: PubChem BioAssay AID743121 (NCATS, 2013)

- Purpose: 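Knock-downs that sensitise breast cancer cells to camptothecin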 (primary screen)
- Cell system: MDA-MB-231 cells, a human breast cancer line
- Reagent: single siRNA against human genes, 20 nM siRNA (0.8 pmol per well)
- Time to read-out: 120 h (drug added 48 h after transfection, read 72 h later)
- Challenge: camptothecin 20 nM (about EC30) for 72 h; vehicle 0.1% DMSO in parallel plates
- Read-out: 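Cell viability by ATP luminescence (CellTiter-Glo) as % of non-targeting siRNA wells, and the log2 ratio of viability without drug over viability with camptothecin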
- Direction: log2 vehicle/camptothecin viability: higher = stronger sensitisation to camptothecin
- Hit rule: 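Each gene scored by redundant siRNA activity (RSA) over its individual siRNA ratios; a gene is called active at p < 0.001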
The whole screen tested about 26,000 reagents; below is a part drawn at random. In the full data, 167 (0.63%) are marked active. 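Calls are per gene from RSA p-values that are not deposited; an individual active-marked siRNA can sensitise only weakly.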 A number with no mark means an inactive call. Reagents against one gene are numbered here. Further read-outs or replicates are left out here.

no.	Target gene	reagent	log2 vehicle/camptothecin viability
1	GFUS	1	-0.185
2	GFUS	2	-0.731
3	GFUS	3	-0.332
4	GFUS	4	-0.589
5	GNAT2	1	0.0377
6	GNAT2	2	-0.0292
7	GNAT2	3	-0.0885
8	GNAT2	4	-0.464
9	AASS	1	-0.141
10	AASS	2	-0.243
11	AASS	3	-0.119
12	AASS	4	-0.237
13	JAM2	1	0.402
14	JAM2	2	-0.0568
15	JAM2	3	-0.282
16	JAM2	4	-0.272
17	CSF1	1	0.35
18	CSF1	2	-0.209
19	CSF1	3	-0.158
20	CSF1	4	-0.061
21	XPNPEP1	1	-0.147
22	XPNPEP1	2	-0.652
23	XPNPEP1	3	-0.112
24	WRN	1	0.239
25	WRN	2	0.0264
26	WRN	3	-0.0888
27	WRN	4	0.241
28	PLPPR2	1	-0.307
29	PLPPR2	2	1.24
30	PLPPR2	3	-0.215
31	PLPPR2	4	-0.16
32	AZU1	1	-0.244
33	AZU1	2	-0.478
34	AZU1	3	-0.506
35	AZU1	4	0.105
36	MED30	1	0.00883
37	MED30	2	0.0517
38	MED30	3	-0.219
39	MED30	4	0.28
40	GNS	1	-0.305
41	GNS	2	-0.155
42	GNS	3	-0.332
43	TTBK2	1	0.0894
44	TTBK2	2	-0.539
45	TTBK2	3	0.0174
46	TTBK2	4	-0.736
47	HSD17B13	1	0.00692
48	HSD17B13	2	0.133
49	HSD17B13	3	-0.317
50	HSD17B13	4	0.0398
51	FGFR3	1	-0.179
52	FGFR3	2	0.137
53	FGFR3	3	0.574
54	FGFR3	4	-0.0642
55	USP24	1	0.0187
56	USP24	2	0.563
57	USP24	3	0.0545
58	PTS	1	0.0923
59	PTS	2	0.0194
60	PTS	3	-0.354
61	CPM	1	0.0864
62	CPM	2	-0.061
63	CPM	3	-0.36
64	CPM	4	-0.31
65	SLC6A17	1	1.02
66	SLC6A17	2	-0.135
67	SLC6A17	3	-0.522
68	SLC6A17	4	-0.169
69	TGFBR2	1	0.104
70	TGFBR2	2	-0.134
71	TGFBR2	3	-0.0595
72	TGFBR2	4	-0.0199
73	KCNQ1	1	-0.123
74	KCNQ1	2	-0.0196
75	KCNQ1	3	0.126
76	HGF	1	-0.359
77	HGF	2	-0.0211
78	HGF	3	0.302
79	HGF	4	-0.331
80	WAS	1	-0.0898
81	WAS	2	-0.0555
82	WAS	3	-0.607
83	TUBE1	1	0.0417
84	TUBE1	2	0.0991
85	TUBE1	3	0.947
86	TUBE1	4	-0.511
87	TAS2R43	1	0.477
88	TAS2R43	2	0.668
89	TAS2R43	3	-0.4
90	TAS2R43	4	-0.0419

No new results follow: an excerpt of the list.
no.	Target gene	reagent	log2 vehicle/camptothecin viability
66	SLC6A17	2	-0.135
67	SLC6A17	3	-0.522
68	SLC6A17	4	-0.169
69	TGFBR2	1	0.104
